Assay results published in the supplement of paper PMC10849652.
This is one part of the list.

Amino acid sequences for entries named in this document (tags omitted). A change or cut given only in a name is not applied to a line headed by its entry.
UniProt Q9H9C1: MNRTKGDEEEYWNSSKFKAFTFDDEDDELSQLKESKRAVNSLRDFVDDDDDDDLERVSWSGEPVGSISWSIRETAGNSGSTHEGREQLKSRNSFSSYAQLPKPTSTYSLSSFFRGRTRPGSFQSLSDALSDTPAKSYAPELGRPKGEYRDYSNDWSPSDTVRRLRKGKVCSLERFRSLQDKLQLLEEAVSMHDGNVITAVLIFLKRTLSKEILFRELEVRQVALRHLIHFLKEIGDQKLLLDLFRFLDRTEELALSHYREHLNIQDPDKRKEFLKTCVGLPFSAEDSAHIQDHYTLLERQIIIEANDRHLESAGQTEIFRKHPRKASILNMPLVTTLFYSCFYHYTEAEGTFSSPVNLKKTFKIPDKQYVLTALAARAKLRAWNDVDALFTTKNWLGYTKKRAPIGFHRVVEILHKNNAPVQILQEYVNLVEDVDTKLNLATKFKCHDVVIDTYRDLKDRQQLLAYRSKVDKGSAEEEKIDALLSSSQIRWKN
UniProt P40337, whole entry, looked up: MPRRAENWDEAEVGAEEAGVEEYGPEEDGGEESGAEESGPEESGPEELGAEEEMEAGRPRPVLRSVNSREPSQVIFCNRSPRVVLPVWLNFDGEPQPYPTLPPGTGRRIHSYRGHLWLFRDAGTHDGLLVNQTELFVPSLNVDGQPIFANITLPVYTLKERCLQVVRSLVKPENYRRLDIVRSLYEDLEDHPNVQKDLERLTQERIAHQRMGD
UniProt Q9HBM0: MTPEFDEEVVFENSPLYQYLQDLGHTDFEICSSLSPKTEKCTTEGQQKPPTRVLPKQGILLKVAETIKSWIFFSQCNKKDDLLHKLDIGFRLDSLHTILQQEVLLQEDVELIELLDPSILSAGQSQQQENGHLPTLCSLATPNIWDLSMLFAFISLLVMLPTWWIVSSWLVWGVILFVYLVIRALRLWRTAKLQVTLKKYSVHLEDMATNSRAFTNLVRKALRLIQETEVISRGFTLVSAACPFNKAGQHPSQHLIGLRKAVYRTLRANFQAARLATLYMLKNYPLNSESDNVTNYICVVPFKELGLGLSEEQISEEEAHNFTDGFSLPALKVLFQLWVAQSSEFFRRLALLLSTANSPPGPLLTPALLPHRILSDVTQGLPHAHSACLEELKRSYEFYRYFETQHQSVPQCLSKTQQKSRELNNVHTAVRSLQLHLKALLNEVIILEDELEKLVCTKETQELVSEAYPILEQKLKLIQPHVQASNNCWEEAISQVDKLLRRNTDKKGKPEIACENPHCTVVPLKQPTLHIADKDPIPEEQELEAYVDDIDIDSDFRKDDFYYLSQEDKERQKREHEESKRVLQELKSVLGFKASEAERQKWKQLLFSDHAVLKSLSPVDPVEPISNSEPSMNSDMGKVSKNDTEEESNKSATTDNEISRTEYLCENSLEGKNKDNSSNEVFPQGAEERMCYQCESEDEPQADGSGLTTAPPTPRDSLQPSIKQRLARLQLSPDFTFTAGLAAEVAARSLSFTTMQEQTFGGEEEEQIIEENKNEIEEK
UniProt Q8N3P4: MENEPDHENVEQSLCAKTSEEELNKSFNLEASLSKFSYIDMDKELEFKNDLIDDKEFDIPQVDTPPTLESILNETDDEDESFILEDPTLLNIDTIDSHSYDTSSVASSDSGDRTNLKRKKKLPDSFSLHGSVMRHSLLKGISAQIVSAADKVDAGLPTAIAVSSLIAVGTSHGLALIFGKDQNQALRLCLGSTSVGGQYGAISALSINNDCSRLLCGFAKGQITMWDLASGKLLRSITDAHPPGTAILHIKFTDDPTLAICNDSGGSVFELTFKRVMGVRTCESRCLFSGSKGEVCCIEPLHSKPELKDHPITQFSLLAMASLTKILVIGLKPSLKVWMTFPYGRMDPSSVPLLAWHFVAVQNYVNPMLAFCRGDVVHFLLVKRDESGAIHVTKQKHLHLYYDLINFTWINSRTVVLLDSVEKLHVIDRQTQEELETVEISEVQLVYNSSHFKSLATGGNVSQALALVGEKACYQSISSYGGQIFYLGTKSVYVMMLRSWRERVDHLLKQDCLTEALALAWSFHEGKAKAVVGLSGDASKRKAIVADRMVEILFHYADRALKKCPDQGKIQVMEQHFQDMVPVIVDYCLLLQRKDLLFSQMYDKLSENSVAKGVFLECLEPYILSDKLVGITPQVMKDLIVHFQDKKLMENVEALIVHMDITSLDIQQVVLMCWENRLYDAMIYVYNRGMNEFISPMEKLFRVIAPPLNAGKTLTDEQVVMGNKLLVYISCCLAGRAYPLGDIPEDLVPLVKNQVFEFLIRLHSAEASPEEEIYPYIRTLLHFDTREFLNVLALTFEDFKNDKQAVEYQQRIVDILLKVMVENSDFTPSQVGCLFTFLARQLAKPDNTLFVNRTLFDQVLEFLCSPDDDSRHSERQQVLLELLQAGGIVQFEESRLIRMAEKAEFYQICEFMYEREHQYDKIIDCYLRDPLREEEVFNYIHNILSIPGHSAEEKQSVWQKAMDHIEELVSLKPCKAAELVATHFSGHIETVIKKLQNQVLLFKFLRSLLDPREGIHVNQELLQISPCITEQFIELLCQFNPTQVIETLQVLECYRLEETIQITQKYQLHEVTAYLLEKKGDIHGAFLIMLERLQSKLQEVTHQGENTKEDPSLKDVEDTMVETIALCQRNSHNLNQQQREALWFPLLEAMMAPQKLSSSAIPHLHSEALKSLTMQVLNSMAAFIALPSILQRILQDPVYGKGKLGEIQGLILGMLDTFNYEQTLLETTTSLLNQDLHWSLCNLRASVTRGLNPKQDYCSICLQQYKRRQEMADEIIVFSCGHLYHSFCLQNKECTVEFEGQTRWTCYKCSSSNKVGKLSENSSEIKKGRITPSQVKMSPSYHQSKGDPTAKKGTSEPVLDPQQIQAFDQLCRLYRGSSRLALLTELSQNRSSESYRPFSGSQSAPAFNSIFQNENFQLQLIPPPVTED
UniProt O75351, whole entry, looked up: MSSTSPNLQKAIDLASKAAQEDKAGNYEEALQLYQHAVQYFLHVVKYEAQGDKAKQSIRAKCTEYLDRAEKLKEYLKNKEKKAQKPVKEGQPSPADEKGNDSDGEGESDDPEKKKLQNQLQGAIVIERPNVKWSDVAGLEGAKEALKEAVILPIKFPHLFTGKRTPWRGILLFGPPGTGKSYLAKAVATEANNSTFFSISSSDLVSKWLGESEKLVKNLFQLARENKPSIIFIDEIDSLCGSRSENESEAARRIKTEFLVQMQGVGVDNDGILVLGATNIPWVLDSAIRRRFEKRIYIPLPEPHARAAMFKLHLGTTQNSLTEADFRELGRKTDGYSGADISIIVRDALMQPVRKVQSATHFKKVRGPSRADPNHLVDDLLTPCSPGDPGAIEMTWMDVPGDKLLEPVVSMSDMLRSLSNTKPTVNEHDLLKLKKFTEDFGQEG
UniProt O95497: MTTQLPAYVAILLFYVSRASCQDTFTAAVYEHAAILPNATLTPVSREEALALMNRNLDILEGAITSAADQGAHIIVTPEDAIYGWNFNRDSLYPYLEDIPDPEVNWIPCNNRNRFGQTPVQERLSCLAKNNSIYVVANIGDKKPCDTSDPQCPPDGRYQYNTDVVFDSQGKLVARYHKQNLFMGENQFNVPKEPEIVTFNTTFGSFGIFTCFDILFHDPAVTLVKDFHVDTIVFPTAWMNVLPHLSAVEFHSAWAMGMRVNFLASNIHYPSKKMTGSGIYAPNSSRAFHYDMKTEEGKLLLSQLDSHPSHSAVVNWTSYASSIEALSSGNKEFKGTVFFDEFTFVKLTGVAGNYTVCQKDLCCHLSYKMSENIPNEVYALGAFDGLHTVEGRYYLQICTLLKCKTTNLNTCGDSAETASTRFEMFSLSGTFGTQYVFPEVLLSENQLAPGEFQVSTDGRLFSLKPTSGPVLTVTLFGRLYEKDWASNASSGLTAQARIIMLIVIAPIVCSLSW
UniProt Q9NZC7: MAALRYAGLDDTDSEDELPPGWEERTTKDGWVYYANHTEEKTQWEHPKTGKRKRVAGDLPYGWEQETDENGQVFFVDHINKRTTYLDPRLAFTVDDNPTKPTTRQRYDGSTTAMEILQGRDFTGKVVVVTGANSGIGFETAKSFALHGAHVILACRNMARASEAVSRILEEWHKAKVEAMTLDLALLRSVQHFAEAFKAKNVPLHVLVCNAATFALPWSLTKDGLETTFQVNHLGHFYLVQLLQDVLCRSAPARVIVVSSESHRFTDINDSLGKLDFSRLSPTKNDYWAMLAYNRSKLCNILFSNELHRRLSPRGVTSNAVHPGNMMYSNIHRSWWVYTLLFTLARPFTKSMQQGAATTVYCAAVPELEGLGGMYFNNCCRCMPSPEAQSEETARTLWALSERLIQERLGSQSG
UniProt P57081: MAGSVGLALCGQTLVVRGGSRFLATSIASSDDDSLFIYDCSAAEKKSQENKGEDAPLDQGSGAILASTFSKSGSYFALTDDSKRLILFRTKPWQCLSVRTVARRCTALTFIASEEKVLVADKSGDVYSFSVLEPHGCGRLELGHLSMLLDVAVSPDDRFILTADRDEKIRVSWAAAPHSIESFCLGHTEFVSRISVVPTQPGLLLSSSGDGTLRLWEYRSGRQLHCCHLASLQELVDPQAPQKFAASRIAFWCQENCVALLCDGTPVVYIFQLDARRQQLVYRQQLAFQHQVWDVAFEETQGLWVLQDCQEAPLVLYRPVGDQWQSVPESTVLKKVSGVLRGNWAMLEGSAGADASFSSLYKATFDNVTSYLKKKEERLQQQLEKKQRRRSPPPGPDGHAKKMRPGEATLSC
UniProt Q9Y4P8: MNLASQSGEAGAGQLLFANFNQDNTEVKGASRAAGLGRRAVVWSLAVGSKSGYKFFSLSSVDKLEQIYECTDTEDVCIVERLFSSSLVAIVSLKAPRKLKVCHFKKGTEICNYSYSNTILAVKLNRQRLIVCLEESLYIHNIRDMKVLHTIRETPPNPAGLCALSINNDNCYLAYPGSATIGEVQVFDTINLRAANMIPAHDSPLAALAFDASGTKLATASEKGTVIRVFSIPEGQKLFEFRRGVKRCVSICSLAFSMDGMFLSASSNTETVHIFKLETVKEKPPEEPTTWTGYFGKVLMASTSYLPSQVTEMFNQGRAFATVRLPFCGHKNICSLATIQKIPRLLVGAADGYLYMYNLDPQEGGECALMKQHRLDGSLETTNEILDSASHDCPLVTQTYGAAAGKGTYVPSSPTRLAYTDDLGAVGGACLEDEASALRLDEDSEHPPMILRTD
UniProt Q9H967: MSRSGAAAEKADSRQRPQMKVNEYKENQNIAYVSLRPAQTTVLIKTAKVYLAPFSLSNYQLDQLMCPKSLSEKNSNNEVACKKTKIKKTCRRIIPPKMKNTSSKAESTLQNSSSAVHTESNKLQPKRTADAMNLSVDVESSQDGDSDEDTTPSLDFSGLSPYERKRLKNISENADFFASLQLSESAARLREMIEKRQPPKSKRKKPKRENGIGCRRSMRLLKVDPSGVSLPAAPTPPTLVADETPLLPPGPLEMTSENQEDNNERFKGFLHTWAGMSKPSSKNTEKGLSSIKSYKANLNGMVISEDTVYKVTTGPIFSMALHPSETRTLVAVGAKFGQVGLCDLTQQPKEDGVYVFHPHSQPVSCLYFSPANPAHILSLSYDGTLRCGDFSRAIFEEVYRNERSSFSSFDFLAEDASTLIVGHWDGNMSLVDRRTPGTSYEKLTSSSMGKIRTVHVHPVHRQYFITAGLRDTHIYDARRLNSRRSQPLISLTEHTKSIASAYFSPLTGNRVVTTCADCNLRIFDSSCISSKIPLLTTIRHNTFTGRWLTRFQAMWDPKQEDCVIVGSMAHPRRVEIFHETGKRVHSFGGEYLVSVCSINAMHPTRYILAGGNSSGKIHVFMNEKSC
UniProt Q9BTA9: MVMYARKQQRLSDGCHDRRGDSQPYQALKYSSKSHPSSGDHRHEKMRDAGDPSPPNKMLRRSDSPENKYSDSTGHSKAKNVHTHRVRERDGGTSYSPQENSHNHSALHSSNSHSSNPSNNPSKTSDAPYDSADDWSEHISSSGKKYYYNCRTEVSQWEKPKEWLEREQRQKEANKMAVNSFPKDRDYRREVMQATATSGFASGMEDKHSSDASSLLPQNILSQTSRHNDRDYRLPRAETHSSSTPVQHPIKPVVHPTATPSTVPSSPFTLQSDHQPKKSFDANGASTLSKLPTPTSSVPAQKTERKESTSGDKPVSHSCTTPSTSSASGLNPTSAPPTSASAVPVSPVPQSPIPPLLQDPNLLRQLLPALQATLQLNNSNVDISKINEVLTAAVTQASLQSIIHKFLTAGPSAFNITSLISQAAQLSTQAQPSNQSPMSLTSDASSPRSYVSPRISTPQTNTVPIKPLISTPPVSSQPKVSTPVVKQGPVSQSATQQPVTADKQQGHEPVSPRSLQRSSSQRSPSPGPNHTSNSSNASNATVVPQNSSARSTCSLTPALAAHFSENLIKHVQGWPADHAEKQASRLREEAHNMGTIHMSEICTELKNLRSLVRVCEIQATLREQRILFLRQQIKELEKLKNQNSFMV
UniProt Q3ZAQ7: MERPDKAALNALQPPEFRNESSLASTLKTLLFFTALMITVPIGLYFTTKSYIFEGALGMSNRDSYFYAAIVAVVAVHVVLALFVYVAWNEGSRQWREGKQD

Key:
Assay in all cases: log2 fold change, soluble protein after heating vs DMSO (PISA); higher = thermal stabilisation; K562 cells, 10 uM, 30 min; active = over 0.2 and 3.5 SD of the protein, either way, in both replicates (recomputed)
[1] = compound: NC(=O)Nc1cc(-c2cccc(F)c2)sc1C(=O)N[C@H]1CCCNC1
Outline: (§1)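 Values are thermal stability changes relative to control samples and are taken from duplicates. They are stated as log2 fold changes. Before quantification by TMTpro 16plex LC-MS/MS with equalised channel sums, K562 cells at 2×10^6 cells/mL were treated with 10 μM compound for 30 min, heated in aliquots for 3 min across 48°C-58°C, pooled, extracted in PBS with 0.5% NP-40 at 4°C, and centrifuged at 21,000xg for 90 min to give the soluble supernatant.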

[2] = compound: NC(=O)c1cnc(N[C@@H]2CCCC[C@@H]2N)nc1Nc1cccc(-n2nccn2)c1
Outline: as §1

[3] = compound: NC1(c2ccc(-c3nc4ccn5c(=O)[nH]nc5c4cc3-c3ccccc3)cc2)CCC1
Outline: as §1

[4] = compound: NCC(=O)Nc1ccc(-n2nc(C(F)(F)F)cc2-c2ccc3c(ccc4ccccc43)c2)cc1
Outline: as §1

entinostat = compound: Nc1ccccc1NC(=O)c1ccc(CNC(=O)OCc2cccnc2)cc1 [entinostat]
Outline: as §1

silmitasertib = compound: O=C(O)c1ccc2c(c1)nc(Nc1cccc(Cl)c1)c1ccncc12 [silmitasertib]
Outline: as §1

citarinostat = compound: O=C(CCCCCCNC(=O)c1cnc(N(c2ccccc2)c2ccccc2Cl)nc1)NO [citarinostat]
Outline: as §1

[5] = compound: c1cc(OCCN2CCCCC2)cc(-c2n[nH]c3ccc(-c4nnc[nH]4)cc23)c1
Outline: as §1

vorinostat = compound: O=C(CCCCCCC(=O)Nc1ccccc1)NO [vorinostat]
Outline: as §1

[6] = compound: O=C1NC(=O)C(c2cnc3ccccn23)=C1c1cn2c3c(cc(F)cc13)CN(C(=O)N1CCCCC1)CC2
Outline: as §1

Measured: log2 fold change

VIPAS39 (UniProt Q9H9C1)
inactive: [1] -0.41 | [2] -0.089 | [3] -0.567 | [4] 0.001 | entinostat 0.191 | silmitasertib -0.354

VHL (UniProt P40337)
inactive: [1] -0.062 | [2] 0.047 | entinostat -0.07 | citarinostat -0.275 | [5] 0.027

VEZT (UniProt Q9HBM0)
inactive: [1] -0.045 | [2] -0.069 | [3] -0.072 | [4] -0.015 | entinostat 0.112 | vorinostat -0.234 | silmitasertib -0.019 | [6] 0.038

WDR81 (UniProt Q562E7)
inactive: [1] -0.161 | [2] -0.14 | entinostat 0.022 | [6] 0.013

VPS8 (UniProt Q8N3P4)
inactive: [1] -0.035 | [2] -0.125 | [3] -0.15 | [4] -0.088 | entinostat 0.077 | vorinostat 0.158 | citarinostat -0.004 | silmitasertib 0.078 | [6] -0.006 | [5] -0.012

WDR6 (UniProt Q9NNW5)
inactive: [1] 0.006 | [2] -0.049 | [3] -0.075 | [4] -0.066 | entinostat 0.022 | vorinostat 0.04 | citarinostat -0.009 | silmitasertib 0.02 | [6] 0.037 | [5] 0.032

VPS4B (UniProt O75351)
inactive: [1] -0.05 | [2] -0.052 | [3] -0.137 | [4] -0.093 | entinostat 0.029 | vorinostat 0 | citarinostat 0.024 | silmitasertib 0.018 | [6] -0.037 | [5] -0.033

WTAP (UniProt Q15007)
inactive: [1] 0.03 | [2] -0.04 | [4] 0.069 | entinostat 0 | citarinostat 0.174 | [5] -0.142

WDR34 (UniProt Q96EX3)
inactive: [1] 0.094 | [2] -0.048 | [3] 0.007 | [4] 0.043 | entinostat -0.031 | vorinostat 0.102 | silmitasertib 0.18 | [6] -0.019

WDR18 (UniProt Q9BV38)
inactive: [1] 0.013 | [2] -0.021 | [3] -0.043 | [4] 0.054 | entinostat 0.019 | vorinostat 0.025 | citarinostat 0.018 | silmitasertib 0.013 | [6] -0.03 | [5] 0.017

VIRMA (UniProt Q69YN4)
inactive: vorinostat -0.24 | citarinostat 0.091 | [6] -0.471 | [5] -0.042

VNN1 (UniProt O95497)
inactive: citarinostat -0.061 | [5] 0.364

WDFY2 (UniProt Q96P53)
inactive: [2] -0.307 | [4] 0.002

VIL1 (UniProt P09327)
inactive: vorinostat 0.164 | [6] 0.078

WWOX (UniProt Q9NZC7)
inactive: [1] 0.288 | [3] -0.055 | entinostat -0.098 | silmitasertib 0.035

WNK4 (UniProt Q96J92)
inactive: [2] 0.059 | [4] -0.503 | [6] 0.047

WWP2 (UniProt O00308)
inactive: [6] 0.335

WARS1 (UniProt G3V227)
inactive: [2] 0.045 | [4] -0.115 | [6] -0.084

2 records picked at random from those above, as already listed:
WARS1 (UniProt G3V227)
inactive: [2] 0.045 | [4] -0.115 | [6] -0.084

VIL1 (UniProt P09327)
inactive: vorinostat 0.164 | [6] 0.078

Additional results follow.

XAB2 (UniProt Q9HCS7)
inactive: [3] 0.011 | silmitasertib 0.038 | [6] 0.298

WDR4 isoform 3 (UniProt P57081)
inactive: [1] -0.103 | entinostat -0.02 | vorinostat -0.118 | [6] -0.135

WASF1 (UniProt Q92558)
inactive: [2] -0.107 | [3] -0.138 | [4] -0.003 | vorinostat -0.009 | citarinostat -0.024 | silmitasertib 0.047 | [6] 0.11 | [5] -0.086

VWF (UniProt P04275)
inactive: [2] 0.023

VEGFA (UniProt H0YBI8)
inactive: [2] -0.02 | [3] 0.293 | [4] 0.058 | citarinostat 0.075 | silmitasertib 0.014 | [5] -0.194

WARS1 (UniProt G3V3P2)
inactive: [1] -0.196 | entinostat -0.074

WDR91 (UniProt A4D1P6)
inactive: [2] -0.122 | [3] 0.01 | [4] -0.15 | citarinostat -0.174 | silmitasertib 0.15 | [6] 0.087 | [5] 0.208

VPS54 (UniProt Q9P1Q0)
inactive: [2] 0.082 | [4] -0.019 | citarinostat -0.007 | [5] -0.018

WIPI2 isoform 6 (UniProt Q9Y4P8)
inactive: [2] 0.068 | vorinostat 0.124 | citarinostat 0.248 | [5] 0.02

WDR76 (UniProt Q9H967)
inactive: [2] -0.229 | [6] 0.139

WAC (UniProt Q9BTA9)
inactive: vorinostat -0.163

WDR46, A0A0G2JJL1
inactive: [1] 0.222 | [3] 0.515 | [4] 0.146 | entinostat -0.113 | citarinostat -0.163 | silmitasertib 0.247 | [6] 0.284 | [5] 0.013

VPS37C (UniProt A5D8V6)
inactive: [2] 0.081 | [3] -0.07 | [4] -0.016 | vorinostat -0.11 | citarinostat -0.016 | silmitasertib 0.05 | [6] -0.048 | [5] -0.265

WARS1 (UniProt G3V339)
inactive: [6] -0.387

VLDLR (UniProt P98155)
inactive: [1] -0.001 | [3] -0.262 | entinostat -0.132 | vorinostat -0.134 | silmitasertib 0.092 | [6] -0.075

VDAC2 (UniProt Q5JSD2)
inactive: [1] -0.086 | [3] -0.249 | entinostat -0.106 | vorinostat -0.14 | citarinostat -0.009 | silmitasertib 0.193 | [6] -0.045 | [5] -0.057

VMA21 isoform 2 (UniProt Q3ZAQ7)
inactive: [2] 0.103 | [3] 0.004 | vorinostat 0.07 | citarinostat 0.157 | silmitasertib 0.106 | [6] -0.346 | [5] -0.133

WSB1 (UniProt Q9Y6I7)
inactive: [6] -0.262

WDR19 (UniProt Q8NEZ3)
inactive: [2] -0.275 | [4] -0.212 | citarinostat -0.052 | [5] 0.084

WARS1 (UniProt G3V5U1)
inactive: [1] -0.609 | [3] -0.142 | entinostat -0.218 | citarinostat -0.608 | silmitasertib 0.297 | [6] -0.761 | [5] -0.083

WDR75 (UniProt Q8IWA0)
inactive: [2] -0.004 | [3] 0.173 | [4] -0.125 | silmitasertib 0.086 | [6] 0.17

VWA3B isoform 6 (UniProt Q502W6)
inactive: [2] -0.271 | [3] -0.023 | [4] -0.059 | vorinostat 0.076 | citarinostat -0.128 | silmitasertib 0.162 | [6] -0.009 | [5] -0.076

VDAC2 (UniProt Q5JSD1)
inactive: [3] -0.177 | silmitasertib 0.215 | [6] 0.461

VPS35, A0A1W2PP10
inactive: [3] 0.098 | [4] -0.199 | citarinostat -0.046 | silmitasertib -0.094 | [6] -0.047 | [5] 0.007

VCPKMT (UniProt Q9H867)
inactive: [2] -0.162
